This data set is described as follows: general procedure: Fmoc solid-phase peptide synthesis; Pal-Peg-PS; DIPCDI/HOBT. The following applies: whole synthesis, scale 34 umol.

On to Cyclo(Amb-Cys)-Thr-Val-Thr-Nph, for which the isolated mass entry is “approximately 1 mg”.
